Reference: publication PMC9603084

B1: AtADF3:Flag (protein, UniProt Q9ZSK4 1-139)
chain: MANAASGMAVHDDCKLKFMELKTKRTHRFIIYKIEELQKQVIVEKIGEPGQTHEDLAASLPADECRYAIFDFDFVSSEGVPRSRIFFVAWSPDTARVRSKMIYASSKDRFKRELDGIQVELQATDPTEMDLDVFKSRAN
B2: AtADF3:cYFP (protein, UniProt Q9ZSK4 1-139)
chain: B1 chain

Assays:
[1] = biological target: Ab-FAR-1^Δsp:eGFP (Aphelenchoides besseyi); assay: co-IP; co-expressed in tobacco leaves by Agrobacterium, 48 h; total leaf proteins; immunoprecipitated with anti-GFP antibody, blotted with anti-Flag; Capturem IP & Co-IP Kit
[2] = biological target: Ab-FAR-1^Δsp:nYFP (Aphelenchoides besseyi); assay: split reporter; BiFC: nYFP and cYFP fusions co-expressed in tobacco leaves by Agrobacterium, 48 h; YFP signal seen by fluorescence microscopy

Binder | binding [1] | binding [2]
B1 | binds | 
B2 |  | binds

No constants are given. Whether binding was seen depends on the method and setting. Binding seen in cells or lysates may run through a third protein. Binding can be weak; no strength is given. Sequences can lack the tags named with a protein.
